Data on seven substances can be found in PMC10550928.

Results are given in words; binding and its absence hold for the method and conditions named. In cells and extracts the contact can be indirect. These calls come from enrichment with a bait or labelling near it, and not all partners need be listed. Where a sequence is shown, tags or fusion partners need not be part of it.

Assay [1] concerns the target T1, MeeY-FLAG (B. subtilis) (UniProt O34997).
T1 sequence: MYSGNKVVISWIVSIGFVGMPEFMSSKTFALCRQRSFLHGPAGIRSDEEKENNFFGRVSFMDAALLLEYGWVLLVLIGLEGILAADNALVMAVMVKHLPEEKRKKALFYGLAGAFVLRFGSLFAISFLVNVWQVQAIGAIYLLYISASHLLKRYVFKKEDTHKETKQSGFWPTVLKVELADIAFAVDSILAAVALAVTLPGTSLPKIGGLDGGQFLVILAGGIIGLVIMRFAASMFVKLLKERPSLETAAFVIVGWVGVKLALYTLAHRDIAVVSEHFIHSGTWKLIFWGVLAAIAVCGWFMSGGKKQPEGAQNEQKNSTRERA
Nature of the assay: affinity purification with mass spectrometry; anti-FLAG M2 magnetic beads on lysates (1% Triton X-100) of B. subtilis grown overnight in LB with 50 uM Mn; 30 °C for 3 h; washed with 1X PBS; eluted by glycine (pH 3.0) for 30 min; LC-MS/MS; membrane proteins found in the sample but not in the untagged WT controls.

A further assay addresses T2, MeeF-FLAG (B. subtilis) (UniProt O34447).
T2 sequence: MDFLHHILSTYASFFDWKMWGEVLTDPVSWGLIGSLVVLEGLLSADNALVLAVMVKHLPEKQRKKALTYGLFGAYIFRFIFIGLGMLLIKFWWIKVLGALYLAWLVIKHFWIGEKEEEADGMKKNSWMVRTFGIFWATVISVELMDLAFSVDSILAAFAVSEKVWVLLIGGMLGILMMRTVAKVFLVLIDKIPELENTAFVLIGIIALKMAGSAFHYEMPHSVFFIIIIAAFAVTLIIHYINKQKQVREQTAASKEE
The experiment in a line: affinity purification with mass spectrometry; anti-FLAG M2 magnetic beads on lysates (1% Triton X-100) of B. subtilis grown overnight in LB with 50 uM Mn; 30 °C for 3 h; washed with 1X PBS; eluted by heating at 95 °C in 2X Laemmli sample buffer; LC-MS/MS; membrane proteins found in the sample but not in the untagged WT controls.

For assay [2], the target named is T1, MeeY-FLAG (B. subtilis). Described as above.

For AtpD (from UniProt P37809 1-473), in the assay with MeeY-FLAG (B. subtilis) [1], the binding result is listed as “binds”.
For AtpA (from UniProt P37808 1-502), the binding entry in the assay with MeeF-FLAG (B. subtilis), in the assay with MeeY-FLAG (B. subtilis) [2] and with MeeY-FLAG (B. subtilis) [1] was “binds” each time.
As for MalA (from UniProt P54716 1-449), the binding entry with MeeF-FLAG (B. subtilis) is recorded as “binds”.
On to AtpG (from UniProt P37810 1-287), for which the binding entry in the assay with MeeF-FLAG (B. subtilis) and with MeeY-FLAG (B. subtilis) [2] was “binds” each time.
In the case of “SsdC (B. subtilis (endogenous in B. subtilis))”, in the assay with MeeF-FLAG (B. subtilis), the binding result was “binds”.
Regarding FtsH (from UniProt P37476 1-637), the binding entry with MeeF-FLAG (B. subtilis) and in the assay with MeeY-FLAG (B. subtilis) [2] was “binds” throughout.
“FrlO (B. subtilis (endogenous in B. subtilis))”: the binding entry with MeeF-FLAG (B. subtilis) is on record as “binds”.
